Experimental findings from article PMC2840025 are described below.

Results are given in words; binding and its absence hold for the method and conditions named. Binding seen in cells or lysates may run through a third protein. Binding can be weak; no strength is given. For some of these results: Where a sequence is shown, tags or fusion partners need not be part of it.

Test [1] addresses T1, AGS3 (endogenous, rat) (rat (endogenous in rat PFC and PC12)) (UniProt Q9R080).
T1 sequence: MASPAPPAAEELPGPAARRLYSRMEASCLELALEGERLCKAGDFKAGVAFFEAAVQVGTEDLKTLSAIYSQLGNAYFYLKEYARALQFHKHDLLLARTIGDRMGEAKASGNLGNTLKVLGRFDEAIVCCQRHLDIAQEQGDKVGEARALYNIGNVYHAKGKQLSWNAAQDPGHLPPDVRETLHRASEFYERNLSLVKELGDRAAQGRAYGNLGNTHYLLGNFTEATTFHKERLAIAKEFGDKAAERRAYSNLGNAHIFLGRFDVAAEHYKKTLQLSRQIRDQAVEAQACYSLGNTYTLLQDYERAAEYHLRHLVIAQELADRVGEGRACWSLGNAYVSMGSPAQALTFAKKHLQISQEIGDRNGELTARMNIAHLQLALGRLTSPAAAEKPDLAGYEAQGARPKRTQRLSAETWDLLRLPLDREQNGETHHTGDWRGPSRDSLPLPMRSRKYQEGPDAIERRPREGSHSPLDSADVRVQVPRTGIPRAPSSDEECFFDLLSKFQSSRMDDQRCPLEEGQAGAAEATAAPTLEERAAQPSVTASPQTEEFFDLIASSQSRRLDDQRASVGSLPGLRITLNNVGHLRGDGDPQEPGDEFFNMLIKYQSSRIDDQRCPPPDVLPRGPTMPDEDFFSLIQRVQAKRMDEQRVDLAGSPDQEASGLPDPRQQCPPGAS
Description: co-IP; endogenous proteins, PC12, COS7 and HeLa cells; data not depicted.

The target of test [2] is T1, AGS3 (endogenous, rat) (rat (endogenous in rat PFC and PC12)). Description: co-IP; endogenous proteins, rat brain PFC lysate in homogenization buffer (20 mM Hepes pH 7.6, 125 mM NaCl, 10% glycerol, 1 mM EDTA, 1 mM EGTA); anti-AGS3 or anti-USP9x antibody 10 µg/ml, protein G-Sepharose, 4°C; western blot.
Test [3] addresses T2, EGFP fusion of AGS3 (Activator of G protein Signaling 3) (UniProt Q9R080).
T2 sequence: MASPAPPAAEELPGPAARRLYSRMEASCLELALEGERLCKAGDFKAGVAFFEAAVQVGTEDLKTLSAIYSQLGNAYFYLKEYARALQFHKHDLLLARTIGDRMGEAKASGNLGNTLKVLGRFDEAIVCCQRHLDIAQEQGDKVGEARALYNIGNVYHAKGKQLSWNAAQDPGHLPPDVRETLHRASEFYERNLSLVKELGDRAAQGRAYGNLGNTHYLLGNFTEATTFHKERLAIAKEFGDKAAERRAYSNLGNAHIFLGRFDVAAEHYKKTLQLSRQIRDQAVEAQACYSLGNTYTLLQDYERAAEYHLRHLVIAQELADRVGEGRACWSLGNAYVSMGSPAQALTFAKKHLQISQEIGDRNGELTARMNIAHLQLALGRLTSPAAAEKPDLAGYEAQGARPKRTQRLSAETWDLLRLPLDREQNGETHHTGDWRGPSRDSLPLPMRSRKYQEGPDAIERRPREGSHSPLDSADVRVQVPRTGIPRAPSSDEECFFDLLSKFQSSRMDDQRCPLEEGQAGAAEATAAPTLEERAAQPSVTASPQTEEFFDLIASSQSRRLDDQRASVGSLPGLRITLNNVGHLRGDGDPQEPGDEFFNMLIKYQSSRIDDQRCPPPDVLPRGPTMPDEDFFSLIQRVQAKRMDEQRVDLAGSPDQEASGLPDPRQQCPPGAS
Description: co-IP; anti-GFP antibody covalently linked to magnetic microbeads, Flp-In CV-1 stable cells; stringent wash (650 mM NaCl, 1% Igepal CA-630, 0.5% sodium deoxycholate, 0.1% SDS, 50 mM Tris-HCl pH 8.0); western blot for Gαi3. (Immunoblotting shows a protein as a band on a membrane.)

Test [4] concerns the target USP9x (endogenous, rat) (rat (endogenous in rat PFC and PC12)). Briefly: co-IP; endogenous proteins, rat brain PFC lysate in homogenization buffer (20 mM Hepes pH 7.6, 125 mM NaCl, 10% glycerol, 1 mM EDTA, 1 mM EGTA); anti-AGS3 or anti-USP9x antibody 10 µg/ml, protein G-Sepharose, 4°C; western blot.

Take USP9x (endogenous, rat) (enzyme): the binding entry in test [1] and in test [2] was “binds” throughout.

Gαi3 (endogenous, Flp-In CV-1 cells): the binding entry in test [3] is “binds”.

B1: AGS3 (endogenous, rat) (protein, UniProt Q9R080 1-673)
chain: MASPAPPAAEELPGPAARRLYSRMEASCLELALEGERLCKAGDFKAGVAFFEAAVQVGTEDLKTLSAIYSQLGNAYFYLKEYARALQFHKHDLLLARTIGDRMGEAKASGNLGNTLKVLGRFDEAIVCCQRHLDIAQEQGDKVGEARALYNIGNVYHAKGKQLSWNAAQDPGHLPPDVRETLHRASEFYERNLSLVKELGDRAAQGRAYGNLGNTHYLLGNFTEATTFHKERLAIAKEFGDKAAERRAYSNLGNAHIFLGRFDVAAEHYKKTLQLSRQIRDQAVEAQACYSLGNTYTLLQDYERAAEYHLRHLVIAQELADRVGEGRACWSLGNAYVSMGSPAQALTFAKKHLQISQEIGDRNGELTARMNIAHLQLALGRLTSPAAAEKPDLAGYEAQGARPKRTQRLSAETWDLLRLPLDREQNGETHHTGDWRGPSRDSLPLPMRSRKYQEGPDAIERRPREGSHSPLDSADVRVQVPRTGIPRAPSSDEECFFDLLSKFQSSRMDDQRCPLEEGQAGAAEATAAPTLEERAAQPSVTASPQTEEFFDLIASSQSRRLDDQRASVGSLPGLRITLNNVGHLRGDGDPQEPGDEFFNMLIKYQSSRIDDQRCPPPDVLPRGPTMPDEDFFSLIQRVQAKRMDEQRVDLAGSPDQEASGLPDPRQQCPPGAS
On to B1, for which, in test [4], the binding entry is listed as “binds”.
